Results are given in words; binding and its absence hold for the method and conditions named. In cells and extracts the contact can be indirect. Some binding calls cover weakened binding; strength is not graded here. Where a sequence is shown, tags or fusion partners need not be part of it.
Assays:
[1] = molecular target: T1, FLAG-tagged LRP10^ΔCD (LRP10 lacking the cytoplasmic domain) (human) (UniProt Q7Z4F1); assay: co-IP; lysates of transfected HEK cells (both partners co-expressed, or LRP10-HA alone with endogenous APP); 50 mM Tris pH 7.4, 150 mM NaCl, 1% NP-40; precipitation with anti-HA, anti-APP or anti-FLAG overnight at 4°C, protein A- or G-Sepharose; immunoblot
T1 sequence: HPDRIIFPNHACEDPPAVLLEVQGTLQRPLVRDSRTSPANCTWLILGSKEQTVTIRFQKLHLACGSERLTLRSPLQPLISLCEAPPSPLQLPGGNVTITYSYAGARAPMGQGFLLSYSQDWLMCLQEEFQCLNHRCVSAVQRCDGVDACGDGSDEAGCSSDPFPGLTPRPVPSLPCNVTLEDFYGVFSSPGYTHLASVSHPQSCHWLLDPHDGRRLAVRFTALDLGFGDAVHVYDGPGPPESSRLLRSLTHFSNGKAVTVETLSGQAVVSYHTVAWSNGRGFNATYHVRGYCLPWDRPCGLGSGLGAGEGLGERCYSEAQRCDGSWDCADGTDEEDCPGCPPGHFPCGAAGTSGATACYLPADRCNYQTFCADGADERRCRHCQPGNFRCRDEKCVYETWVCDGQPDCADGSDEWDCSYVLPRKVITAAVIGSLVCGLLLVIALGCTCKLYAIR

[2] = molecular target: T2, FLAG-tagged LRP10^ΔED (LRP10 lacking the extracellular domain) (human) (UniProt Q7Z4F1); assay: as above
T2 sequence: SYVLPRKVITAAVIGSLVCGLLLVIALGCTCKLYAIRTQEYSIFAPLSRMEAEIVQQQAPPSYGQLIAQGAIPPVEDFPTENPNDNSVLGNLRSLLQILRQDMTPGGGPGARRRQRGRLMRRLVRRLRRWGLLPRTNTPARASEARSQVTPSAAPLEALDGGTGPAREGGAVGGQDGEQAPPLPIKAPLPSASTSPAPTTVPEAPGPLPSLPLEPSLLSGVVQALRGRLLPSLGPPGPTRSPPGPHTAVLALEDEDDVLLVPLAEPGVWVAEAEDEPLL

[3] = molecular target: T3, HA-tagged LRP10 (LDLR-related protein 10), wild type (human) (UniProt Q7Z4F1); assay: as above
T3 sequence: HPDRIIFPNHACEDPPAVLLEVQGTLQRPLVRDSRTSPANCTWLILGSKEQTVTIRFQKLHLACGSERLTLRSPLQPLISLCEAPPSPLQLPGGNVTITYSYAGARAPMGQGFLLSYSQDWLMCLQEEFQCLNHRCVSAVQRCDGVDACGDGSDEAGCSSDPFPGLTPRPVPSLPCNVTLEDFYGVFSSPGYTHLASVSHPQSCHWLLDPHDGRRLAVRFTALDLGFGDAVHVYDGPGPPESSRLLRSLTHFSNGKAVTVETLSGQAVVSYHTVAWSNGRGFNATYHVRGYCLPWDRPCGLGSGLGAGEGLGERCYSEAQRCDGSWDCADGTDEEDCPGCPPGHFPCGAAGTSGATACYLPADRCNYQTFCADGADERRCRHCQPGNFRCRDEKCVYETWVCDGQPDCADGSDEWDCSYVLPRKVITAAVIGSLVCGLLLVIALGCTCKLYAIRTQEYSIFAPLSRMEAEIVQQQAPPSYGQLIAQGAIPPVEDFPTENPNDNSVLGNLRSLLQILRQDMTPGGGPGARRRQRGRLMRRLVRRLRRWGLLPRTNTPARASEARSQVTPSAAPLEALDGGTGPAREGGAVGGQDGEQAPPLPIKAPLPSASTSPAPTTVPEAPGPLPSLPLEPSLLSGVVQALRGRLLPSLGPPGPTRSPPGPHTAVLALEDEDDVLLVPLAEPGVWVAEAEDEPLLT

[4] = molecular target: T3, HA-tagged LRP10 (LDLR-related protein 10), wild type (human); assay: co-IP; HEK cells transfected separately with GFP, GFP-APP695 or LRP10-HA; lysates mixed after lysis, then precipitated with anti-HA; immunoblot with anti-HA and anti-GFP

binding [1]	binding [2]	binding [3]	binding [4]	Substance
binds	binds weakly	binds		untagged APP695 (from UniProt P05067-4 18-695)
		binds	binds weakly	GFP-tagged APP695 (from UniProt P05067-4 18-695)

Source: article PMC3520120
